Test results published in patent US20130338198A1, “COMPOSITION FOR TREATING DERMATITIS AND ICHTHYOSIS, AND METHOD FOR TREATING DERMATITIS AND ICHTHYOSIS” (Skinvisible Pharmaceuticals, Inc., priority 2010, published 2013).
At least one structure is not confirmed: it was looked up by name or label, or the drawing left a doubt.

What was measured:
[1] = tested on: elastase; conditions: cited from earlier work
[2] = target: T1, trypsin (Bos taurus, UniProt P00760); assay: Lineweaver-Burk plot of trypsin with N-benzoyl-L-arginine ethylester as substrate, with and without DPHP (FIG. 2); format: biochemical
T1 sequence (P00760 24-246): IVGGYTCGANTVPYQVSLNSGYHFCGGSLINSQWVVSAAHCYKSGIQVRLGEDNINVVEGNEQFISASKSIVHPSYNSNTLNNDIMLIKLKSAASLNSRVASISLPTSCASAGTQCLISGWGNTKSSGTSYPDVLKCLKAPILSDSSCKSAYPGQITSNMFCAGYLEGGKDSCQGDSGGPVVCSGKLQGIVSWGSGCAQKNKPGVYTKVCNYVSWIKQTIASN

SMILES: CCCCCCCCCCCCCCCC(=O)N1CCC(O)[C@]1(C(=O)O)C(=O)CCCCCCCCCCCCCCC (some centres unmarked) [DPHP, dipalmitoylhydroxyproline]
- elastase activity inhibition [1]: inhibit elastase activity
- type of trypsin inhibition [2]: competitive inhibitor
